Consider 78 substances from the supplement of paper PMC5949888.

Most values lie at the floor of the assay. Slopes are relative: functional sequences can read slightly below zero.

The series concerns Saccharomyces cerevisiae PS128 hsf1 delta, HSF1(1-493) fusion. Nature of the series: growth estimate (transactivation domain function in HSF1 fusion, heat-shock survival) (a.u. (slope of normalised read count over time)); higher = stronger growth at 37°C, i.e. more transactivation activity. The conditions noted are these: library: random library.
Take TGLVFWPC: the growth estimate was -0.247.

As for LHPSKQTEQLRIQPSGLNQS, the growth estimate is < -0.25.

As for LVKGNRYR, the growth estimate was < -0.25.

Turning to TDASVHARKWDKAVPAQGGA, the growth estimate is < -0.25.

As for AWHCVRRLAIVALNNVRR, the growth estimate was < -0.25.

On to IVRTRRLRTLLILSRQSLRP, for which the growth estimate was < -0.25.

For the substance STEVRTRALDNRY, the growth estimate was < -0.25.

As to SGTVHASVMNVTAGRVGHFI, the growth estimate was < -0.25.

Regarding SCEETRL, the growth estimate is < -0.25.

Regarding EQPS, the growth estimate is < -0.25.

PWD: the growth estimate is < -0.25.

As to TQLASGRLR, the growth estimate was < -0.25.

In the case of RSRVGLTVVF, the growth estimate is < -0.25.

Take DSRYFHG: the growth estimate is < -0.25.

Turning to NEFWRPSPGIWGKELSSTST, the growth estimate is < -0.25.

For the substance ARLQGP, the growth estimate was < -0.25.

As to QRYILVSAPSRLSM, the growth estimate was < -0.25.

As for LSITFFVHNSYILRLVRCLL, the growth estimate is < -0.25.

For IVPRKRVRGILESRV, the growth estimate was -0.245.

As to MRPCPRGSAADGIGAERRSH, the growth estimate is < -0.25.

Turning to RPLTQVVSYDTLEENARVSL, the growth estimate is < -0.25.

Take NRIGWLMNLPRVKVSLYSRM: the growth estimate was < -0.25.

Regarding SVTGSSSYLESSPPVSPTMR, the growth estimate is < -0.25.

As to RTLQVLQTL, the growth estimate was < -0.25.

As for VQNVEARTAGASMSSVADNL, the growth estimate was < -0.25.

As to TYRFFIADVEKPWLCYSGNS, the growth estimate was < -0.25.

As for ASGG, the growth estimate was -0.222.

For the substance KRCEKGNADNVG, the growth estimate was < -0.25.

As for FISDGIR, the growth estimate was < -0.25.

Turning to LLRFNAGKSVRLNAVGPARE, the growth estimate is < -0.25.

As to CDGRDGVSVVVVFTVLRQCR, the growth estimate is < -0.25.

Turning to GKVWEGPGIQRQFSTECPRV, the growth estimate was < -0.25.

In the case of QGILLVGSGSEWVDTSADTL, the growth estimate is < -0.25.

As for ETDMMHRRAYSCGRDPSTQR, the growth estimate is < -0.25.

For the substance NEPVRGLALLPAGYVVAPGA, the growth estimate was < -0.25.

Consider VRHDRDYCRNNSWWIETTQV, for which the growth estimate was < -0.25.

For DLLCSGLRRQNNGFRSLITK, the growth estimate was < -0.25.

As for SFRLACGVNGHTE, the growth estimate is < -0.25.

Turning to TLSANTTRMPHTQFINTAKP, the growth estimate is < -0.25.

Consider RSTSPPPNELRPLLARTKRP, for which the growth estimate was < -0.25.

For the substance GWISARLCAQASVFGLHQPR, the growth estimate was < -0.25.

Regarding IGRKSLLPCSGLAIV, the growth estimate is < -0.25.

Consider LRMCAESRTATSSTGQLAIY, for which the growth estimate was < -0.25.

Regarding DEMSRLRNANRISPAMHQTV, the growth estimate was < -0.25.

Regarding LGRNSIW, the growth estimate was 0.058.

Turning to CEIDLERSDTSLGKECLARS, the growth estimate is < -0.25.

In the case of SQALRIG, the growth estimate is < -0.25.

For IFLSGRNARDPARIIGHKHR, the growth estimate was < -0.25.

ACVPRHDPRYSRTHLIRWST: the growth estimate is < -0.25.

ACVMG: the growth estimate is < -0.25.

For the substance VGAVETLRSR, the growth estimate is < -0.25.

Consider AQLKCNGVRHRSKYPAAIE, for which the growth estimate was < -0.25.

LILFPR: the growth estimate was < -0.25.

On to MGSEEIPPQIGNVH, for which the growth estimate was < -0.25.

With VTKAALHRFVYISTNRE, the growth estimate was < -0.25.

For ADARRGAASSSRKIKTDGTE, the growth estimate is < -0.25.

For the substance RDQTFIKSLPGSKHARAHTR, the growth estimate is < -0.25.

Consider GHMQTARTRGRALERFSVCC, for which the growth estimate was < -0.25.

On to MFGHQSTVCLRISSTYMAMT, for which the growth estimate is < -0.25.

As for LPL, the growth estimate is < -0.25.

For GSVVHSQRPS, the growth estimate is < -0.25.

Regarding MLLPIGLALPRDASGE, the growth estimate is < -0.25.

RTSSTGFASPALDIWARQSS: the growth estimate was < -0.25.

Take MTRRPGARVYKRLGV: the growth estimate is < -0.25.

Take VKSIFL: the growth estimate was < -0.25.

For the substance GLSFVSGGFLFHNSPLQKPS, the growth estimate is -0.197.

Regarding VHRGIVMDSTRQGKCRGAVG, the growth estimate is < -0.25.

Turning to DTVPCYRWDGSENRLAQGTL, the growth estimate was < -0.25.

For the substance ATGDTMSY, the growth estimate was < -0.25.

Consider RETISVKMGAGAEEENGADF, for which the growth estimate is < -0.25.

With ERASNRFSPVCGHNEHEVAQ, the growth estimate is < -0.25.

RLHIGCQDVGGFEHSWGEFG: the growth estimate is < -0.25.

On to AESHGSDNTGMTAMFRGYTA, for which the growth estimate was < -0.25.

Regarding GPHRLALDGLYYLGAPKEIA, the growth estimate is < -0.25.

For PGNQARGTRLPFGRLTKLSA, the growth estimate was < -0.25.

On to HVLFG, for which the growth estimate is < -0.25.

On to LSSMRSEYS, for which the growth estimate was < -0.25.

Take TLGAIRLSTTPNLFSYYRQG: the growth estimate is < -0.25.
